Only a part is listed here, and it is no random draw. At the low end of the ranking, values are background and their order means little.

The assay concerns the target SPI1 (UniProt P17947). The assay can be described thus: DAPPL (digital affinity profiling via proximity ligation, sequencing). The conditions noted are these: 10 mM Tris-HCl pH 7.5, 50 mM NaCl, 1 mM DTT, 4% glycerol, room temperature, 30 min; GST-TFs on glutathione beads, 16-mer random dsDNA library, 0.1% …; high values mean tight binding; double strand, one strand shown; scale: fold enrichment (6-mer frequency, TF over GST control).
For the sequence ACCGCA, the binding signal stood at 1.2.

In turn, AGGTGT came in with a binding signal of 0.82.

Take CTATTT: the binding signal stood at 1.76.

Sequence CCACAC gave a binding signal of 0.988.

Sequence AGGATA returned a binding signal of 0.897.

CTACGC returned a binding signal of 1.59.

In turn, AGGCTT had a binding signal of 0.914.

Sequence GCATTT had a binding signal of 1.58.

In turn, GGTATG displayed a binding signal of 0.937.

Consider ACCCCA, for which the binding signal was determined as 1.08.

For the sequence CTAAGG, the binding signal worked out at 0.919.

AGCATA showed a binding signal of 0.927.

In the case of ATATTT, the binding signal came out at 1.43.

Turning to GATCAC, the binding signal stood at 0.938.

In the case of GATCAT, the binding signal is 0.929.

With CAAACG, the binding signal stood at 0.991.

Sequence GGTTTG had a binding signal of 1.06.

In the case of CGTTGT, the binding signal came out at 0.985.

Turning to GTGTCC, the binding signal was 1.08.

ACATAG returned a binding signal of 0.997.

ATTCGG: the binding signal worked out at 0.917.

As for CTCGGC, the binding signal is 1.45.

As to TATCCC, the binding signal worked out at 1.36.

CTGTGG returned a binding signal of 0.881.

Sequence TGCCGG displayed a binding signal of 0.94.

As for AGCAAC, the binding signal is 0.965.

As to TTACTT, the binding signal was found to be 1.59.

AGGACC: the binding signal was determined as 0.87.

Take AGTATT: the binding signal amounted to 1.1.

TATGAG came in with a binding signal of 0.954.

ACCCGA: the binding signal is 0.945.

For GAAAGC, the binding signal is 0.884.

TAAGTC: the binding signal stood at 0.873.

In the case of TAATCG, the binding signal stood at 1.02.

CTTGAA gave a binding signal of 1.13.

In turn, GGCACC had a binding signal of 0.777.

As to AGGATT, the binding signal was 0.85.

GCAATG: the binding signal was found to be 0.99.

On to TGTAGA, for which the binding signal was determined as 0.941.
